One test deals with ETV7 (UniProt Q9Y603). Description: DAPPL (digital affinity profiling via proximity ligation, sequencing). Particulars: 10 mM Tris-HCl pH 7.5, 50 mM NaCl, 1 mM DTT, 4% glycerol, room temperature, 30 min; GST-TFs on glutathione beads, 16-mer random dsDNA library, 0.1% …; high values mean tight binding; double strand, one strand shown; scale: fold enrichment (6-mer frequency, TF over GST control).

Protein sequences, listed by entry. Tags and fused reporters are not part of them. Lines headed by an entry give the natural chain unless they say otherwise; changes in a name come on top.
UniProt Q9Y603: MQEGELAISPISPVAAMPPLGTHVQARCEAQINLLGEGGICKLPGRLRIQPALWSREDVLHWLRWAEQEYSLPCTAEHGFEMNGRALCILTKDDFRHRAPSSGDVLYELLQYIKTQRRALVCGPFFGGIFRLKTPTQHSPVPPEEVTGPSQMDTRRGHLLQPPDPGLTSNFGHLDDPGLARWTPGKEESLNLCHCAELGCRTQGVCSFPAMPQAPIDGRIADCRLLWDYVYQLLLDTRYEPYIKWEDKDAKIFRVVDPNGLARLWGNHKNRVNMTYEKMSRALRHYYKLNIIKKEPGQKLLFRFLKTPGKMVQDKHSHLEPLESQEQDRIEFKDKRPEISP
UniProt P41212: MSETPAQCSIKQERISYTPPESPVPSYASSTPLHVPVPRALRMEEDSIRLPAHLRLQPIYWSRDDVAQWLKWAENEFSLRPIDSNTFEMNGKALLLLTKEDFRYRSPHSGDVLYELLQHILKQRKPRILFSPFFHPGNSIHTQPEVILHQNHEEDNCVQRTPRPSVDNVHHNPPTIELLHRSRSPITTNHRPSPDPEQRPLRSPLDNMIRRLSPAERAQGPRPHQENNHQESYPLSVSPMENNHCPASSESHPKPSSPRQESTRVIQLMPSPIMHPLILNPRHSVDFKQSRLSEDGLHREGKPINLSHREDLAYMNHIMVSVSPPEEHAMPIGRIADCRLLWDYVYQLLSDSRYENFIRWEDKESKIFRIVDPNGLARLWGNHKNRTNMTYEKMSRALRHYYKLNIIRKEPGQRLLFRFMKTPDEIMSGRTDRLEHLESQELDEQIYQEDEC

For another test, the target named is ETV6 (UniProt P41212). Described as above. The conditions noted are these: 10 mM Tris-HCl pH 7.5, 50 mM NaCl, 1 mM DTT, 4% glycerol, room temperature, 30 min; GST-TFs on glutathione beads, 16-mer random dsDNA library, 0.1% …; high values mean tight binding; double strand, one strand shown; scale: fold enrichment (6-mer frequency, TF over GST control).

Only a part is listed here, and it is no random draw. At the low end of the ranking, values are background and their order means little.

For CGACTA, the values for the binding signal with ETV7 and with ETV6 were 1.31 and 1.28, respectively.

On to GAAATA, for which the binding signal amounted to 1.6 with ETV7 and 1.75 with ETV6.

In the case of ACGCCC, the binding signal with ETV7 came out at 1.03; in the test with ETV6 it was 1.13.

With GCCTCA, the binding signal in the test with ETV7 was determined as 1.24; in the test with ETV6, 1.18.

Regarding CCTAGA, the binding signal with ETV7 stood at 0.961; with ETV6, 0.975.

On to CTGCCG, for which the binding signal with ETV7 worked out at 1.39.

On to ATTTTT, for which the binding signal with ETV7 amounted to 1.19; with ETV6, 1.17.

Take ACTACT: in the test with ETV7, the binding signal was 1.35.

As for TTAATT, the binding signal with ETV7 turned out to be 1.55; with ETV6, 1.4.

As for ATGTCA, the binding signal with ETV7 came out at 1.02.

In the case of GGCCCC, the binding signal is 0.986 with ETV7 and 0.912 with ETV6.

Regarding GCTTTG, the binding signal in the test with ETV7 was 1.44; with ETV6, 1.24.

For TACTTG, the binding signal with ETV7 stood at 1.34; with ETV6, 1.24.

TGCTCA: the binding signal in the test with ETV7 came to 1.54; with ETV6, 1.28.

GGTCTT: the binding signal was determined as 1.19 with ETV7 and 0.976 with ETV6.

Turning to CTATAC, the binding signal with ETV7 worked out at 1.19.

With AACAAA, the values for the binding signal in the test with ETV7 and with ETV6 were 1.13 and 1.18, respectively.

As for AGGAAA, the values for the binding signal with ETV7 and with ETV6 were 1.46 and 1.75, respectively.

In the case of CCCGTT, the binding signal with ETV7 came to 1.19; with ETV6, 1.16.

Take TACATG: the binding signal was found to be 1.25 with ETV7 and 1.24 with ETV6.

Regarding CGCTAG, the binding signal with ETV7 was found to be 0.911; with ETV6, 1.04.

Regarding ATCTGT, the binding signal came to 1.21 in the test with ETV7 and 1.12 with ETV6.

CTGCGA: the binding signal in the test with ETV7 was found to be 1.26; with ETV6, 1.29.

In the case of CAATCC, the figures for the binding signal in the test with ETV7 and in the test with ETV6 were 1.16 and 1.22, respectively.

Sequence TCCACA came in with a binding signal with ETV7 of 1.17.

As for TGACCT, the binding signal worked out at 1.75 with ETV7 and 1.66 with ETV6.

Take CGACTC: the binding signal with ETV7 was found to be 1.29.

As for AAGGTA, the binding signal in the test with ETV7 was found to be 1.18; in the test with ETV6 it was 1.19.

Consider CCCCCG, for which the binding signal was found to be 1.05 in the test with ETV7 and 1.12 in the test with ETV6.

With GAACCT, in the test with ETV7, the binding signal stood at 1.19.

The sequence CCTACT had a binding signal in the test with ETV7 of 1.35.

For the sequence TCTTGA, the binding signal with ETV7 came out at 1.22; in the test with ETV6, 1.24.
